Reference: patent US20220204630A1 (SUNSHINE LAKE PHARMA, published 2022)
No constants are given. Whether binding was seen depends on the method and setting. Some entries that bind do so weakly or less than the wild type.

The chains behind the UniProt entries cited, without tags or fusion partners. Where a name states a change or a piece, a line headed by the entry shows the natural chain unless it says otherwise. Residues count along the entry.
UniProt P04629, residues 33-423: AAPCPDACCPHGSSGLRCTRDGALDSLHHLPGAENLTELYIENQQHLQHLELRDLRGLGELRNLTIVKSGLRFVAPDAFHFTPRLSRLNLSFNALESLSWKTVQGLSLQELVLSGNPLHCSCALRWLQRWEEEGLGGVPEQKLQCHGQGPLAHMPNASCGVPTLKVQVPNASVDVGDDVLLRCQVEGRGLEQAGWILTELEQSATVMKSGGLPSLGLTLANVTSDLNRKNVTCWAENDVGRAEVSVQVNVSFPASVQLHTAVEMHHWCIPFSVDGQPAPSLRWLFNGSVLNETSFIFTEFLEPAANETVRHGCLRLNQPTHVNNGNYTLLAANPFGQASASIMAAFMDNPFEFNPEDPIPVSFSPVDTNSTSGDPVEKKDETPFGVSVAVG
UniProt Q3UFB7: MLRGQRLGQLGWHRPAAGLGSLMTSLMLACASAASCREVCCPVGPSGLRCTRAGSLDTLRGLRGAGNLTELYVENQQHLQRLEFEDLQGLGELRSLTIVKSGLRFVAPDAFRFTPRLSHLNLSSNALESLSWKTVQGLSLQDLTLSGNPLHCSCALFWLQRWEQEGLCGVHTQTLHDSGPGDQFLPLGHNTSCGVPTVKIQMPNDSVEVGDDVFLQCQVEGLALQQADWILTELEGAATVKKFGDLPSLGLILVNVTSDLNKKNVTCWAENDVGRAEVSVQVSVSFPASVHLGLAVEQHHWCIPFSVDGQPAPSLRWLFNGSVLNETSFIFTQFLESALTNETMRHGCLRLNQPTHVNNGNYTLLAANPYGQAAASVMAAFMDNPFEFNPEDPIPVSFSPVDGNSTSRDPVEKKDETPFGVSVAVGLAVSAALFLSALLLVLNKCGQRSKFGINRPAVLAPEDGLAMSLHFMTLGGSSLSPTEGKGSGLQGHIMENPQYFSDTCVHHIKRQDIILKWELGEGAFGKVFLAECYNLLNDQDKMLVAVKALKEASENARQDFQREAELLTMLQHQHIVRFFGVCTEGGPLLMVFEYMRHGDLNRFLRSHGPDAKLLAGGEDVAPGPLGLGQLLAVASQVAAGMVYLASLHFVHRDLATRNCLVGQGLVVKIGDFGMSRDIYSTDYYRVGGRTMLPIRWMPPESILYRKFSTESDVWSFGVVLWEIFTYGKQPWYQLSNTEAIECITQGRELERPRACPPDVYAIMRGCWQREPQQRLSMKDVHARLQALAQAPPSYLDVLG
Mouse-TrKA receptor on the surface of HEK293T-Mouse-TrKA cells: residues 34-799 of Q3UFB7
Mouse-TrKA protein: residues 34-420 of Q3UFB7

Assays:
[1] = biological target: T1, TRKA protein with a histidine tag (human, UniProt P04629 33-423, limits assumed); assay: BLI (Fortebio Octet RED96)
T1 construct: it is put last here only for order; also called TRKA (50 µg/ml, 75 kDa, provided by HEC Labs); not shown: histidine tag

[2] = biological target: TrKA receptor protein coated in ELISA (Examples 11 and 16) (human) (UniProt P04629); assay: ELISA, antibody titrated 0.019-20 µg/mL on TrKA
[3] = biological target: Mouse-TrKA protein (mouse) (UniProt Q3UFB7); assay: competition ELISA: antibody against biotinylated Mouse-NGF binding to Mouse-TrkA; negative control IgG4 (m31)
[4] = biological target: Mouse-TrKA receptor on the surface of HEK293T-Mouse-TrKA cells (mouse) (UniProt Q3UFB7); assay: flow cytometry on HEK293T-Mouse-TrKA cells
[5] = biological target: Mouse-TrKA protein (mouse) (UniProt Q3UFB7); assay: ELISA
[6] = biological target: TrKA receptor protein coated in ELISA (Examples 11 and 16) (human) (UniProt P04629); assay: ELISA

Measured: binding

B1: 23E12 chimeric antibody (antibody, human IgG4 S228P, kappa, F234A L235A, V domains shown)
VH: QVQLQQSGAELVRPGTSVKISCKASGYAFTNYWLGWMKQRPGHGLEWIGDFYPRTGNTFYNENFKGKVTLTADKSSNTAYMQLSSLTSEDSAVYLCARAGTGFDYWGQGTTLTVSS
VL: SIVMTQSPKSMSMSVGERVTLSCKASENVGGYVSWYQQKPDQSPKLLIYGASSRHTGVPDRFTGSGSETDFTLTISSVQAEDLAAYHCGQNYIYPFTFGGGTKLEIKR
notes: expressed in CHO cells
binds: all assays above
